These are yes or no findings as the source states them, for the method shown. Binding calls can cover weak binding; strength is not graded here. Sequences can lack the tags named with a protein.
Biological target: Marchantia polymorpha MpSLY1 (yeast bait fusion) (Marchantia polymorpha)
Assay: two-hybrid; SLY1/GID2 baits (pGBKT7) and DELLA preys (pGADT7); spotted on SD/-LWAH/X, strain AH109, 3-5 d at 30 °C; strengths quantified as β-galactosidase units with CPRG in liquid culture, strain Y187 (ND if OD578 <0.01 after 3 h)

B1: Oryza sativa SLR1 (yeast prey fusion) (protein, UniProt Q7G7J6 1-625)
chain: MKREYQEAGGSSGGGSSADMGSCKDKVMAGAAGEEEDVDELLAALGYKVRSSDMADVAQKLEQLEMAMGMGGVSAPGAADDGFVSHLATDTVHYNPSDLSSWVESMLSELNAPLPPIPPAPPAARHASTSSTVTGGGGSGFFELPAAADSSSSTYALRPISLPVVATADPSAADSARDTKRMRTGGGSTSSSSSSSSSLGGGASRGSVVEAAPPATQGAAAANAPAVPVVVVDTQEAGIRLVHALLACAEAVQQENFAAAEALVKQIPTLAASQGGAMRKVAAYFGEALARRVYRFRPADSTLLDAAFADLLHAHFYESCPYLKFAHFTANQAILEAFAGCHRVHVVDFGIKQGMQWPALLQALALRPGGPPSFRLTGVGPPQPDETDALQQVGWKLAQFAHTIRVDFQYRGLVAATLADLEPFMLQPEGEADANEEPEVIAVNSVFELHRLLAQPGALEKVLGTVHAVRPRIVTVVEQEANHNSGSFLDRFTESLHYYSTMFDSLEGGSSGQAELSPPAAGGGGGTDQVMSEVYLGRQICNVVACEGAERTERHETLGQWRNRLGRAGFEPVHLGSNAYKQASTLLALFAGGDGYRVEEKEGCLTLGWHTRPLIATSAWRVAAA
For B1, the binding was “binds”.

Source: PMC10724065
